# PubChem BioAssay AID686943 – Drosophila RNAi Screening Center – 2013
# Aim: 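Knockdowns that increase or decrease active ERK after insulin receptor stimulation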 (primary screen)
# Cell system: Drosophila S2R+ haemocyte-like cells expressing YFP-tagged ERK (Rolled)
# Reagents: long dsRNA against Drosophila genes
# Conditions: insulin stimulation versus unstimulated cells; dose and duration not given
# Measurement: 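Per-plate z-scores of phospho-ERK immunostaining normalised to YFP-tagged ERK, measured with and without insulin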
# Scale: replicate 1, z-score of dpERK with insulin and replicate 2, z-score of dpERK with insulin: higher = more active ERK per ERK-YFP after insulin; replicate 1, z-score of dpERK under basal conditions: higher = more basal active ERK per ERK-YFP; replicate 1, z-score of ERK-YFP with insulin: higher = more YFP-tagged ERK signal
# In all, the deposit lists about 23,000 reagents; below is an unselected part of those that have a named target and a result. 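Extra replicates exist only for a retested subset of genes; insulin dose and duration not given; both raised and lowered dpERK matter.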 The numbers tell different reagents against one gene apart. Not stated in the record: the amount of reagent, the time to read-out.
predicted target,reagent,"replicate 1, z-score of dpERK with insulin","replicate 2, z-score of dpERK with insulin","replicate 1, z-score of dpERK under basal conditions","replicate 1, z-score of ERK-YFP with insulin"
CG14715 (GeneID 41403),1,-0.68,-0.49,-0.35,1.18
CG15870 (GeneID 36446),1,0.49,0.96,-0.04,0.09
CG11191 (GeneID 35765),1,-0.34,-0.13,0.16,-0.05
CG8613 (GeneID 36593),1,0.29,-0.58,-0.03,0.16
CG31446 (GeneID 318741),1,-0.34,0.11,0.95,0.26
CG42814 (GeneID 10178958),1,-0.67,-0.24,-0.42,0.5
Irbp (GeneID 117419),1,0.85,0.28,0.55,-0.47
CG34238 (GeneID 5740238),1,1.2,0.44,1.02,0.28
CG13807 (GeneID 38290),1,1.09,1.17,0.01,0.33
l(2)k14505 (GeneID 35399),1,0.09,0.44,0.21,0.23
mex1 (GeneID 39677),1,0.05,-0.17,1.91,1.26
Got2 (GeneID 33373),1,-0.19,0.74,-0.34,-0.88
Alms1a (GeneID 31393),1,-0.52,-0.16,-0.45,0.25
CG4853 (GeneID 36974),1,0.49,0.71,0.29,-0.38
Ddx56 (GeneID 33118),1,-0.77,-0.88,-1.9,-0.01
CG5002 (GeneID 37025),1,0.34,0.01,-1.55,0.15
CG4497 (GeneID 34001),1,-0.79,-1.22,0.52,-0.32
MTF-1 (GeneID 39089),1,-0.31,0.34,-0.37,-0.02
MTF-1 (GeneID 39089),2,0.69,-0.14,0.5,0.02
MTF-1 (GeneID 39089),3,1.29,0.98,-0.95,0.06
Lsd-1 (GeneID 42810),1,0.42,-0.57,-0.76,0.15
CG10011 (GeneID 43387),1,-0.69,-0.21,-0.9,0.21
CG9500 (GeneID 33888),1,0.57,-0.3,1.49,0.25
CG30265 (GeneID 37622),1,0.34,0.11,-0.85,-1.83
Ppat-Dpck (GeneID 38647),1,-0.58,0.12,0.46,0.67

Single entries from the list:
Result of Alms1a (GeneID 31393) under “replicate 1, z-score of dpERK with insulin”: -0.52
Result for Got2 (GeneID 33373) in “replicate 1, z-score of ERK-YFP with insulin”: -0.88
Value for mex1 (GeneID 39677) under “replicate 1, z-score of dpERK with insulin”: 0.05
Under “replicate 1, z-score of dpERK with insulin”, Ddx56 (GeneID 33118) reads -0.77
Entry for CG9500 (GeneID 33888) under “replicate 2, z-score of dpERK with insulin”: -0.3
Irbp (GeneID 117419), replicate 2, z-score of dpERK with insulin = 0.28

More reagents follow.
predicted target,reagent,"replicate 1, z-score of dpERK with insulin","replicate 2, z-score of dpERK with insulin","replicate 1, z-score of dpERK under basal conditions","replicate 1, z-score of ERK-YFP with insulin"
CG15117 (GeneID 37197),1,-0.8,-1.29,-3.1,1.59
Obp50d (GeneID 246436),1,0.34,-0.16,0.19,0.13
CG4611 (GeneID 38601),1,1.7,0.86,0.49,0.03
CG7194 (GeneID 38933),1,0.25,-0.17,-0.28,0.08
CG14395 (GeneID 41560),1,0.06,0.83,0.08,0.01
CG9664 (GeneID 33540),1,0.25,-0.44,-0.32,-0.41
Dll (GeneID 37973),1,0.15,-0.07,-2.57,1.15
TSG101 (GeneID 39881),1,-0.45,-1.32,1.52,0.66
Dronc (GeneID 39173),1,-0.08,-0.63,-0.22,0.05
HPS4 (GeneID 37009),1,0.37,-0.5,-0.21,-0.53
PPO3 (GeneID 44513),1,0.01,-0.76,-0.58,0.23
twz (GeneID 37456),1,0.13,-0.6,-0.01,0.38
bchs (GeneID 33819),1,-0.22,-0.41,-0.01,0.82
CG33919 (GeneID 3772720),1,-0.97,0.03,1.4,1.38
Or9a (GeneID 31975),1,1.08,0.19,0.89,-0.32
Root (GeneID 42860),1,0.41,-0.51,-1.06,0.2
CG17687 (GeneID 39495),1,-0.67,0.02,0.83,0.51
CG14626 (GeneID 31064),1,0,0,0.41,0.43
CG1090 (GeneID 40551),1,0.82,0.72,-0.24,-0.18
CG1090 (GeneID 40551),2,0.86,1.95,0.06,0.77
rb (GeneID 31381),1,-0.15,-0.07,-0.25,0.78
nord (GeneID 37882),1,0.37,0.45,-2.85,-0.03
nord (GeneID 37882),2,-0.63,-0.58,-0.39,-0.04
CG32198 (GeneID 317909),1,-0.45,-0.57,0.22,0.92
CG10841 (GeneID 41665),1,0.25,0.21,-0.43,0.49
bsd (GeneID 36302),1,-1.15,-2.61,-0.85,-2.83
Rbp6 (GeneID 39919),1,0.65,0.04,2.1,-0.13
Rbp6 (GeneID 39919),2,-0.25,-0.6,-0.65,0.42
Rbp6 (GeneID 39919),3,-0.05,-0.01,-1.75,-0.23
Rbp6 (GeneID 39919),4,0.45,-0.23,-0.21,-0.41
Rbp6 (GeneID 39919),5,0.26,0.18,-2.52,0.12
p120ctn (GeneID 3355143),1,0.24,0.4,0.24,0.19
CG13875 (GeneID 38024),1,0.19,0.35,-0.62,0.01
Neu2 (GeneID 40375),1,1.53,1.09,-0.1,-0.58
SIFaR (GeneID 42530),1,-0.07,1.27,-0.88,-0.27
SIFaR (GeneID 42530),2,0.42,-0.6,0.9,-0.27
sw (GeneID 44160),1,0.7,-0.56,0.23,0.39
Exd2 (GeneID 41374),1,0.51,0.12,0.07,0.09
CG32432 (GeneID 40310),1,-1.36,-3.98,-1.8,-4.91
CG32432 (GeneID 40310),2,0.05,-2.18,-0.96,-0.78
CG32432 (GeneID 40310),3,-0.38,0.41,1.28,0.31
Ets98B (GeneID 43334),1,1.03,-0.09,-0.22,-0.55
HmgD (GeneID 37481),1,1.57,-0.34,-0.52,-0.28
Wdr92 (GeneID 39997),1,0.54,-0.66,-1.14,0.09
Prosbeta5R1 (GeneID 37690),1,2.1,0.67,,-0.1
CG7781 (GeneID 34143),1,-0.5,-0.28,-1.31,0.44
Tsen2 (GeneID 318956),1,-0.53,-0.72,0.78,0.64
Grx3 (GeneID 34745),1,-0.51,0.01,-1.04,0.28
